Literature values, collected in patent US9561272B2, “Compositions and methods for modulating immune responses” (The University of Queensland, priority 2006, dated 2017).
At least one structure is not confirmed: it was looked up by name or label, or the drawing left a doubt.

System: NF-κB
Details: Table 3, miscellaneous inhibitors of NF-κB; step of NF-κB function inhibited, per the cited reference; cited from earlier work

SMILES: CC(C)=CCC[C@@](O)(CO[C@@H]1O[C@H](CO)[C@@H](O)[C@H](O)[C@H]1O)[C@H]1CC[C@]2(C)[C@@H]1CC[C@@H]1[C@@]3(C=O)CC[C@H](O[C@@H]4OC[C@H](O)[C@H](O[C@@H]5OC[C@@H](O)[C@H](O)[C@H]5O)[C@H]4O[C@@H]4O[C@@H](C)[C@H](O)[C@@H](O)[C@H]4O)C(C)(C)[C@@H]3CC[C@]12C
- Effect or point of inhibition: Transactivation (PPAR-
